Laboratory results as given in PMC8396234.
No constants are given. Whether binding was seen depends on the method and setting. In cells and extracts the contact can be indirect. Some binding calls cover weakened binding; strength is not graded here.

The chains behind the UniProt entries cited, without tags or fusion partners.
UniProt Q92847: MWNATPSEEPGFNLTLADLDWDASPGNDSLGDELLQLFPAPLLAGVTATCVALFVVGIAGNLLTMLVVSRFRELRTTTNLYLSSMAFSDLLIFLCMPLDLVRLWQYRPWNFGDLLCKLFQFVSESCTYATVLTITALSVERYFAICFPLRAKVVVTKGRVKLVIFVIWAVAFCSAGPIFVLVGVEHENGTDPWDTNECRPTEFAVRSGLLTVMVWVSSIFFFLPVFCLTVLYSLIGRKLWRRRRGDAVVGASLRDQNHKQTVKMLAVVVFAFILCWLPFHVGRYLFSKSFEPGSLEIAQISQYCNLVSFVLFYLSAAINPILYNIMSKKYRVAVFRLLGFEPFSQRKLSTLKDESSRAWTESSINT
UniProt Q99P50: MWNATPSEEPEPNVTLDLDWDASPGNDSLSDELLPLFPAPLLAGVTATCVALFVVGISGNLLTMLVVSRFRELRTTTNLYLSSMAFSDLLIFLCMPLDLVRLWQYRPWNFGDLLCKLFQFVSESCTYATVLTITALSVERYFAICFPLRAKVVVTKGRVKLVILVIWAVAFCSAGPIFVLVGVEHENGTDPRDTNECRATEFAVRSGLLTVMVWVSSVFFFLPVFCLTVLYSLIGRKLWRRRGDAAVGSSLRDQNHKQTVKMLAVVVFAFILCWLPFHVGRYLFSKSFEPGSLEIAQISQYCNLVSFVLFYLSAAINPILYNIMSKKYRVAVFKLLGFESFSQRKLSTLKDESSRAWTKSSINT
UniProt P47936: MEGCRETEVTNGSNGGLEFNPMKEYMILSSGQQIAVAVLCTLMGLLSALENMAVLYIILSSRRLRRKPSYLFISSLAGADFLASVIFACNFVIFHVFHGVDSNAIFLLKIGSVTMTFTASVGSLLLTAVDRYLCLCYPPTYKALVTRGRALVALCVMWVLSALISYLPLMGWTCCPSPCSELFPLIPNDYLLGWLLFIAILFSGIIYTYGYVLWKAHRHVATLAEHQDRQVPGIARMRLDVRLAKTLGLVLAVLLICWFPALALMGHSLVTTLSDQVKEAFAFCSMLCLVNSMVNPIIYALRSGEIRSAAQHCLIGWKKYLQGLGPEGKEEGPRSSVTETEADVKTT

Legend:
[1] = target: GHSR1a fused to Rluc8 N/C hemiproteins (GHSR1a-nRLuc and GHSR1a-cRLuc) (human) (UniProt Q92847); assay: split reporter; bimolecular complementation in HEK-293T cells: RLuc8 N/C hemiproteins on GHSR1a (bioluminescence) and YFP (Venus) N/C hemiproteins on CB2R (fluorescence)
[2] = target: GHSR1a (endogenous, mouse primary striatal neurons) (mouse (endogenous in primary striatal neurons of C57BL/6J)) (UniProt Q99P50); assay: proximity ligation; Duolink in situ PLA on fixed, permeabilised primary striatal neurons from fetuses of C57BL/6J mothers on a standard or high-fat diet; mouse anti-CB2R and rabbit anti-GHSR1a primary antibodies; red dots per cell counted

| Substance | binding [1] | binding [2] |
| --- | --- | --- |
| GHSR1a fused to Rluc8 N/C hemiproteins (GHSR1a-nRLuc and GHSR1a-cRLuc) (from UniProt Q92847 1-366) (receptor) | binds | – |
| CB2R (endogenous, mouse primary striatal neurons) (from UniProt P47936 1-347) (receptor) | – | binds |
